Data as given in PubChem BioAssay AID686937 (Drosophila RNAi Screening Center, 2013).

Purpose: 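Genes in the fly needed for secretion of protein constitutively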 (primary screen)
Cell system: Drosophila S2 cells expressing secreted horseradish peroxidase
Reagents: long dsRNA against Drosophila genes
Duration: about 5.5 days (5 days dsRNA, then 12 h reporter induction)
Treatment: reporter expression induced after 5 days of dsRNA, read 12 h later; inducer not stated
Measured: 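After 5 days of dsRNA and 12 h of reporter induction, medium peroxidase read by chemiluminescence and scored as per-plate z-score; higher values mean more reporter released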
Direction: z-score: higher = more reporter secreted into medium
In all, the deposit lists about 23,000 reagents; below is a random part of those with a known target gene and a result. 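Reduced-secretion tags in replicate 1 do not always agree with the z-scores; no criterion for assigning the tags was given.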 The numbers tell different reagents against one gene apart. Further read-outs or replicates are left out here. The record does not give: the amount of reagent.

predicted target	dsRNA no.	z-score, replicate 1	z-score, replicate 2
Ald1 (Aldolase 1)	1	-1.7	-1.5
mRpL19 (mitochondrial ribosomal protein L19)	1	0.17	0.25
mRpL19 (mitochondrial ribosomal protein L19)	2	-0.49	-0.95
Bet1 (Blocked early in transport 1)	1	-5.3	-4.94
ZnT63C (Zinc transporter 63C)	1	0.86	0.29
ZnT63C (Zinc transporter 63C)	2	0.29	-0.16
ZnT63C (Zinc transporter 63C)	3	0.32	0.45
ZnT63C (Zinc transporter 63C)	4	6.69	3.4
CG8407	1	0.21	-0.22
CG7856	1	0.11	0.29
phtm (phantom)	1	-1.21	-0.57
CR33283 (pseudo)	1	-0.82	-0.32
CG18294	1	0.28	0.28
eRF3 (eukaryotic translation release factor 3)	1	-0.68	-0.55
CG15594	1	0.42	0.21
Tg (Transglutaminase)	1	0.32	0.04
CG30002	1	-0.09	
CG16995	1	0.17	0.26
spg (sponge)	1	0.24	0.26
spg (sponge)	2	0.05	0.31
wac (wee Augmin)	1	0.57	0.26
CG5412	1	0.42	0.42
CG18538	1	0.53	0.31
CG8788	1	0.11	0.11
CG6209	1	0.26	0.26
tud (tudor)	1	-0.05	0.19
CG32683	1	0.55	0.45
CG32683	2	0.49	0.29
CG32683	3	0.6	0.18
PGRP-LA (Peptidoglycan recognition protein LA)	1	0.5	0.53
PGRP-LA (Peptidoglycan recognition protein LA)	2	0.28	0.27
CG33337	1	0.29	0.38
CG12395	1	0.18	0.15
Cht2 (Chitinase 2)	1	0.24	0.37
CG3199	1	0.22	0.33
Atg6 (Autophagy-related 6)	1	0.2	0.11
Crys (Crystallin)	1	-0.15	0.03
TyrRS-m (Tyrosyl-tRNA synthetase, mitochondrial)	1	0.07	0.11
CG6276	1	0.17	0.25
CG8389	1	0.32	0.18
CG8389	2	0.2	0.21
nSMase (neutral sphingomyelinase)	1	0.26	0.32
Lcp1 (Larval cuticle protein 1)	1	0.49	0.22
AnxB9 (Annexin B9)	1	0.48	0.43
St2 (Sulfotransferase 2)	1	-0.58	0.39
St2 (Sulfotransferase 2)	2	-0.62	6.6
sif (still life)	1	0.35	0.39
sif (still life)	2	0.51	0.21
sif (still life)	3	0.11	-0.03
sif (still life)	4	-0.41	0.44
ttk (tramtrack)	1	0.16	0.42
ttk (tramtrack)	2	0.6	0.54
Naa20B (N(alpha)-acetyltransferase 20 B)	1	-0.04	1.5
Saysd1 (SAYSVFN motif domain containing 1)	1	0.31	0.26
dpp (decapentaplegic)	1	0.76	0.42
dpp (decapentaplegic)	2	0.22	0.11
dpp (decapentaplegic)	3	0.15	0.06
CG1603	1	-0.52	-0.42
CG9886	1	0.45	0.37
CG5188	1	-0.07	-0.24
CG6055	1	0.35	0.18
Psn (Presenilin)	1	0.22	0.26
Zip48C (Zinc/iron regulated transporter-related protein 48C)	1	0.4	0.3
CG8950	1	0.29	0.28
Hsc70-5 (Heat shock protein 70 cognate 5)	1	-0.52	-1.07
Alp12 (Alkaline phosphatase 12)	1	-0.01	0.37
CG18528	1	0.38	0.11
CG13426	1	-10.8	0.4
SMC2 (Structural maintenance of chromosomes 2)	1	0.23	0.06
SREBP (Sterol regulatory element binding protein)	1	-5.42	-7.31
Rint1 (RAD50 interactor 1)	1	-4.69	-5.25
nvy (nervy)	1	0.26	0.06
CG4612	1	-0.53	-0.5
FoxP (Forkhead box P)	1	0.15	0.36
FoxP (Forkhead box P)	2	-0.88	-0.13
loopin-1	1	0.28	0.34
lncRNA:CR32730 (long non-coding RNA:CR32730)	1	1.36	0.49
Nup58 (Nucleoporin 58kD)	1	-0.13	-0.56
Irbp18 (Inverted repeat binding protein 18 kDa)	1	0.38	0.24
polo	1	-1.35	0.15
polo	2	-2.03	-3.65
CG15414	1	0.17	0.33
CG15414	2	-0.49	-0.16

Part of the list above, limited to “z-score, replicate 1”.
mRpL19 (mitochondrial ribosomal protein L19) #2 = -0.49
Bet1 (Blocked early in transport 1) = -5.3
ZnT63C (Zinc transporter 63C) #1 = 0.86
ZnT63C (Zinc transporter 63C) #2 = 0.29
ZnT63C (Zinc transporter 63C) #3 = 0.32
ZnT63C (Zinc transporter 63C) #4 = 6.69
CG8407 = 0.21
CG7856 = 0.11
phtm (phantom) = -1.21
